Reference: patent US8350062B2, “Synthesis and anticancer activity of new actin-targeting small-molecule agents” (priority 2009, dated 2013)

Tested on: 60 different human tumor cell lines
Test: NCI 60 cell line single dose screen, whole panel
Type: cell-based
Details: 10 micromolar
Description: Analog 10 was screened utilizing 60 different human tumor cell lines, representing leukemia, melanoma and cancers of the lung, colon, brain, ovary, breast, prostate, and kidney in order to show selective growth inhibition or cell killing of particular tumor cell lines. This screen is unique in that the complexity of a 60 cell line dose response produced by a given compound results in a biological response pattern which can be utilized in pattern recognition algorithms (COMPARE program. See: http://dtp.nci.nih.gov/docs/compare/compare.html). Using these algorithms, it is possible to assign a putative mechanism of action to a test compound, or to determine that the response pattern is unique and not similar to that of any of the standard prototype compounds included in the NCI database. […]
Following drug addition, the plates are incubated for an additional 48 h at 37° C., 5% CO2, 95% air, and 100% relative humidity. […] Bound stain is subsequently solubilized with 10 mM trizma base, and the absorbance is read on an automated plate reader at a wavelength of 515 nm. […] Using the absorbance measurements [time zero, (Tz), control growth, (C), and test growth in the presence of drug (Ti)], the percentage growth is calculated.

With `COCCC(=O)NC[C@H](O)[C@H](C)C(=O)NCCC[C@H]1O[C@@]2(CCC[C@@H](CC[C@H](C)/C=C(\C)[C@H](C)O)O2)CCC1C` (some centres unmarked) [Analog 10] the “Growth Percent, Delta” value was 87.55% and the “Growth Percent, Range” value was 151.10%.
